Measurements published in publication PMC9968304.
No constants are given. Whether binding was seen depends on the method and setting. Some results given as binding are weak or reduced against the parent protein; the word gives no strength.

How the values were obtained:
Assay in all cases: cryo-EM structure; single particle cryoEM, anaerobic grids; subset of particles of the MoFe^ΔNifV sample purified from A. vinelandii DJ605 with endogenous NafT bound; 50 mM Tris-HCl, 200 mM NaCl, 5 mM sodium dithionite, pH 7.8; 2.71 Å
[1] = biological target: T1, MoFe-protein α-subunit (NifD) (Azotobacter vinelandii) (UniProt P07328)
T1 sequence: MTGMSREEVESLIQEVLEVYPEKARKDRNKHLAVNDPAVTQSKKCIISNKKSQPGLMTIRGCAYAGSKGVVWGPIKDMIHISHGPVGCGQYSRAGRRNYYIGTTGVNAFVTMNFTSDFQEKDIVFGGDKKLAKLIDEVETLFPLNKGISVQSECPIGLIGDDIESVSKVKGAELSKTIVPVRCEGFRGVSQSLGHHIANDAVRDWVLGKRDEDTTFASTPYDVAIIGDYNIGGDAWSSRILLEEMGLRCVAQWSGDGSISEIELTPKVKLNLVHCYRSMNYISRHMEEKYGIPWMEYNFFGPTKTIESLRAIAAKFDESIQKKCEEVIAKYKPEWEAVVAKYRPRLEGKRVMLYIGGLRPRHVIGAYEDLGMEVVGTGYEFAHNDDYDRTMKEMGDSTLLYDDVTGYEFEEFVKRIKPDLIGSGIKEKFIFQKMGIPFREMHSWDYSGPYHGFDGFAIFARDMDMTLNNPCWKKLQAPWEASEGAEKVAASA

[2] = biological target: T2, MoFe-protein β-subunit (NifK) (Azotobacter vinelandii) (UniProt P07329)
T2 sequence: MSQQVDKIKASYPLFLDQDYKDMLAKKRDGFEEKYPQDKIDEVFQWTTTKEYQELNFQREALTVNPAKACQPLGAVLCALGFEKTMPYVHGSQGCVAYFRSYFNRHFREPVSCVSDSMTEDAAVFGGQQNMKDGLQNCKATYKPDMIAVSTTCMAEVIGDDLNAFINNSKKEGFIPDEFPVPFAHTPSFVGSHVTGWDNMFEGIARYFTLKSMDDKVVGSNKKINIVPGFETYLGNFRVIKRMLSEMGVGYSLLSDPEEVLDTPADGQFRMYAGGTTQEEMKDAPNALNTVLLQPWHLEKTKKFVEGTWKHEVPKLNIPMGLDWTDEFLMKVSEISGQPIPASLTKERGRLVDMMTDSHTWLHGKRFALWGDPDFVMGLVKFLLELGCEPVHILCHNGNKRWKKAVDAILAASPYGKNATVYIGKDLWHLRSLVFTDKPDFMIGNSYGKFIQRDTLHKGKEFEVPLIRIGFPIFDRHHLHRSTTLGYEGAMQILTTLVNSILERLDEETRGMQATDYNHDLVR

[3] = biological target: T3, MoFe^ΔNifV (homocitrate-deficient MoFe-protein purified from the homocitrate synthase (nifV) deletion strain of A. vinelandii) (Azotobacter vinelandii) (UniProt P07328+P07329)
T3 sequence 1: T1 sequence
T3 sequence 2: T2 sequence

Measured: binding

B1: NafT (nitrogenase-associated factor protein T), product of the Avin_01560 gene (protein, UniProt C1DH13 1-135)
chain: MSWRILLCHKHPVSARLRFLIPTGGGVVLPQTLPRLAVIAEDQEAPVQCHPASALRALQETMALGWQLELIGEFRLNMEVPGQIMPIYLAALAGHELPPPPEGTRWIELTQSIGMPWLDRELLRRVYEELIGFGC
binds: all assays above
